Assay results: patent US20200399344A1
Results are given in words; binding and its absence hold for the method and conditions named. Some results given as binding are weak or reduced against the parent protein; the word gives no strength. Where a sequence is shown, tags or fusion partners need not be part of it. One block for each binder: values may come before it.

Protein sequences, listed by entry. Tags and fused reporters are not part of them. Residues count along the entry.
UniProt P04202, residues 279-390: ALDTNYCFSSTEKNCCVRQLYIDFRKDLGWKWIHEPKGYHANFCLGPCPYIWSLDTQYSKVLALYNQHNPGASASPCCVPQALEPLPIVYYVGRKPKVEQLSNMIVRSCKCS
UniProt P13747, residues 22-305: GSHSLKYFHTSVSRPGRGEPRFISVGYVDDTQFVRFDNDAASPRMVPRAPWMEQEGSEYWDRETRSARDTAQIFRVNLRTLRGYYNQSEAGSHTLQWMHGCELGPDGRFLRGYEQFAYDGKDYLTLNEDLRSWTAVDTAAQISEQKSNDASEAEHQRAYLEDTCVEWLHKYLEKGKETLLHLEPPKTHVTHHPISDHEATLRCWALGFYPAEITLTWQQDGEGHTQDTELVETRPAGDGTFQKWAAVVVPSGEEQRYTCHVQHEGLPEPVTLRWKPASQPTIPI
UniProt P09793, residues 36-162: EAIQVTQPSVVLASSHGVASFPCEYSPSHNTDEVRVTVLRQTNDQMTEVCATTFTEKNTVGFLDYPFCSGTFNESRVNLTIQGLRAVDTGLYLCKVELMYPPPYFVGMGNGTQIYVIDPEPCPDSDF

Columns and labels:
[1] = target: mTGFβ1, recombinant, plate-bound (mouse) (UniProt P04202); test: ELISA, recombinant TGFβ1 coated, anti-mFc HRP (FIG. 30)
[2] = target: mTGFβ1, recombinant, plate-bound (mouse) (UniProt P04202); test: ELISA, mTGFβ1 coated (FIG. 30)
[3] = target: mTGFβ1, recombinant, plate-bound (mouse) (UniProt P04202); test: ELISA: coat mTGFB1 (R+D 7666-MB), detection Anti-mFc-HRP
[4] = target: recombinant HLA-E-His protein (human) (UniProt P13747); test: sandwich ELISA, HLA-E-His coated, rat anti-mCD86 detection (FIG. 37)
[5] = target: recombinant HLA-E-His protein (human) (UniProt P13747); test: dual ELISA; coat HLA-E-His, mCD86-fc-NKG2a titrated, detection Anti-mCD86, Anti-Rat-HRP
[6] = target: mCD28 expressed on CHO-K1/mCD28 cells (mouse) (UniProt P31041); test: flow cytometry (FIG. 69)
[7] = target: mCD28 expressed on CHO-K1/mCD28 cells (mouse) (UniProt P31041); test: flow cytometry, CHO-K1/mCD28 against WT CHO-K1 (FIG. 69, 70)
[8] = target: recombinant HLA-E-His protein (human) (UniProt P13747); test: sandwich ELISA, HLA-E-His coated, anti-mCD86 detection (FIG. 37)
[9] = target: HLA class I histocompatibility antigen, alpha chain E (HLA-E), plate-bound recombinant protein (human) (UniProt P13747); test: ELISA, plate-bound HLA-E (FIG. 7B)
[10] = target: HLA class I histocompatibility antigen, alpha chain E (HLA-E), plate-bound recombinant protein (human) (UniProt P13747); test: ELISA, plate-bound HLA-E, anti-mouse Fc HRP (FIG. 3B)
[11] = target: mCTLA-4, plate-bound (mouse) (UniProt P09793); test: ELISA, plate-bound mCTLA-4, anti-mouse Fc HRP (FIG. 3C)
[12] = target: mCD28 expressed on CHO-K1/mCD28 cells (mouse) (UniProt P31041); test: flow cytometry cell binding assay, detection Anti-mFc-APC 1:100
[13] = target: T1, mCD28-Fc (mouse) (UniProt P31041); test: ELISA: coat mCD28-Fc (Acro), detection Anti-mFc-HRP
T1 sequence (looked up): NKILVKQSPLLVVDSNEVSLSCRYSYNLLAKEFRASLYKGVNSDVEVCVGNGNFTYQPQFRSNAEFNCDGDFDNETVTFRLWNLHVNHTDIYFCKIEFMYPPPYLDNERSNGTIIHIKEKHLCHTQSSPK

[14] = target: mCD28 expressed on CHO-K1/mCD28 cells (mouse) (UniProt P31041); test: flow cytometry on CHO-K1/mCD28 cells (mCD28-C16), APC-A, dose series (doses not given)
[15] = target: T1, mCD28-Fc (mouse); test: ELISA, mCD28-Fc coated (FIG. 33)
[16] = target: T2, recombinant Qa1 protein (Qa1-His) (mouse) (UniProt P06339); test: sandwich ELISA, Qa1-His captured by coated anti-mouse Qa1 antibody, goat anti-mCD48 detection (FIG. 36)
T2 sequence (MHC heavy, looked up): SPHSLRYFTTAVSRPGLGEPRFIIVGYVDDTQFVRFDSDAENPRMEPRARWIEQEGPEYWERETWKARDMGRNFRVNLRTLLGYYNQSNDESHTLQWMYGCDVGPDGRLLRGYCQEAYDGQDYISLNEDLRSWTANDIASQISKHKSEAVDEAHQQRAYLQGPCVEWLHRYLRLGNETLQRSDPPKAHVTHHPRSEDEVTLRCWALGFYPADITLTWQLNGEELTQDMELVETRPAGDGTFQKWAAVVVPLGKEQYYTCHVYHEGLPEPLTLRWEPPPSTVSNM

[17] = target: HLA class I histocompatibility antigen, alpha chain E (HLA-E), plate-bound recombinant protein (human) (UniProt P13747); test: ELISA, plate-bound HLA-E, anti-mCD48 antibody and anti-goat HRP (FIG. 7B)
[18] = target: T2, recombinant Qa1 protein (Qa1-His) (mouse); test: sandwich ELISA; coat Anti-mouse Qa-1, primary Qa-1-His, mCD48-Fc-NKG2a titrated, secondary Anti-mCD48, Donkey Anti-Goat IgG HRP
[19] = target: T2, recombinant Qa1 protein (Qa1-His) (mouse); test: sandwich ELISA, Qa1 captured by coated anti-mouse Qa1 antibody, anti-mCD48 detection (FIG. 36)
[20] = target: mCD28 expressed on CHO-K1/mCD28 cells (mouse) (UniProt P31041); test: flow cytometry, CHO-K1/mCD28 against WT CHO-K1 (FIG. 67, 68)
[21] = target: mCD28 expressed on CHO-K1/mCD28 cells (mouse) (UniProt P31041); test: flow cytometry on CHO-K1/mCD28 cells (mCD28-c16), APC-A, dose series (doses not given)
[22] = target: T3, mCD28, plate-bound (mouse) (UniProt P31041); test: ELISA, plate-bound mCD28, anti-mouse Fc HRP (FIG. 5C)
T3 sequence (looked up): T1 sequence (looked up)

[23] = target: T1, mCD28-Fc (mouse); test: ELISA, recombinant mouse CD28 coated, anti-mouse Fc HRP (FIG. 33)
[24] = target: mCTLA-4, plate-bound (mouse) (UniProt P09793); test: ELISA, plate-bound mCTLA-4 (FIG. 5D)
[25] = target: mCTLA-4, plate-bound (mouse) (UniProt P09793); test: ELISA, plate-bound mCTLA-4, anti-mouse Fc HRP (FIG. 5D)
[26] = target: T3, mCD28, plate-bound (mouse); test: ELISA, plate-bound mCD28 (FIG. 5C)
[27] = target: HLA class I histocompatibility antigen, alpha chain E (HLA-E), plate-bound recombinant protein (human) (UniProt P13747); test: ELISA, plate-bound HLA-E, anti-mouse Fc HRP (FIG. 5B)
[28] = target: mCD28 expressed on CHO-K1/mCD28 cells (mouse) (UniProt P31041); test: flow cytometry (FIG. 67)

B3: mouse CD48-Fc-NKG2A chimeric protein (Fc fusion)
chain: FQGHSIPDINATTGSNVTLKIHKDPLGPYKRITWLHTKNQKILEYNYNSTKTIFESEFKGRVYLEENNGALHISNVRKEDKGTYYMRVLRETENELKITLEVFDPVPKPSIEINKTEASTDSCHLRLSCEVKDQHVDYTWYESSGPFPKKSPGYVLDLIVTPQNKSTFYTCQVSNPVSSKNDTVYFTLPCDLARSVPRDCGCKPCICTVPEVSSVFIFPPKPKDVLTITLTPKVTCVVVDISKDDPEVQFSWFVDDVEVHTAQTQPREEQFNSTFRSVSELPIMHQDWLNGKEFKCRVNSAAFPAPIEKTISKTKGRPKAPQVYTIPPPKEQMAKDKVSLTCMITDFFPEDITVEWQWNGQPAENYKNTQPIMDTDGSYFVYSKLNVQKSNWEAGNTFTCSVLHEGLHNHHTEKSLSHSPGIIEGRMDTPYTEAKAQINSSMTRTHRDINYTLSSAQPCPHCPKEWISYSHNCYFIGMERKSWNDSLVSCISKNCSLLYIDSEEEQDFLQSLSLISWTGILRKGRGQPWVWKEDSIFKPKIAEILHDECNCAMMSASGLTADNCTTLHPYLCKCKFPI
binding [16]: binds
binding [17]: binds
binding [18]: binds
binding [19]: binds

B4: mouse CD80-Fc-NKG2A chimeric protein (Fc fusion)
chain: VDEQLSKSVKDKVLLPCRYNSPHEDESEDRIYWQKHDKVVLSVIAGKLKVWPEYKNRTLYDNTTYSLIILGLVLSDRGTYSCVVQKKERGTYEVKHLALVKLSIKADFSTPNITESGNPSADTKRITCFASGGFPKPRFSWLENGRELPGINTTISQDPESELYTISSQLDFNTTRNHTIKCLIKYGDAHVSEDFTWEKPPEDPPDSKNVPRDCGCKPCICTVPEVSSVFIFPPKPKDVLTITLTPKVTCVVVDISKDDPEVQFSWFVDDVEVHTAQTQPREEQFNSTFRSVSELPIMHQDWLNGKEFKCRVNSAAFPAPIEKTISKTKGRPKAPQVYTIPPPKEQMAKDKVSLTCMITDFFPEDITVEWQWNGQPAENYKNTQPIMDTDGSYFVYSKLNVQKSNWEAGNTFTCSVLHEGLHNHHTEKSLSHSPGIIEGRMDTPYTEAKAQINSSMTRTHRDINYTLSSAQPCPHCPKEWISYSHNCYFIGMERKSWNDSLVSCISKNCSLLYIDSEEEQDFLQSLSLISWTGILRKGRGQPWVWKEDSIFKPKIAEILHDECNCAMMSASGLTADNCTTLHPYLCKCKFPI
binding [20]: binds
binding [21]: binds
binding [22]: binds
binding [23]: binds
binding [24]: binds
binding [12]: binds
binding [25]: binds
binding [26]: binds
binding [27]: binds
binding [28]: binds

The next lines start with the values.

binding [1]: binds
binding [2]: binds
binding [3]: binds
B1: mouse TGFBR2-Fc-NKG2A chimeric protein (Fc fusion)
chain: IPPHVPKSDVEMEAQKDASIHLSCNRTIHPLKHFNSDVMASDNGGAVKLPQLCKFCDVRLSTCDNQKSCMSNCSITAICEKPHEVCVAVWRKNDKNITLETVCHDPKLTYHGFTLEDAASPKCVMKEKKRAGETFFMCACNMEECNDYIIFSEEYTTSSPDVPRDCGCKPCICTVPEVSSVFIFPPKPKDVLTITLTPKVTCVVVDISKDDPEVQFSWFVDDVEVHTAQTQPREEQFNSTFRSVSELPIMHQDWLNGKEFKCRVNSAAFPAPIEKTISKTKGRPKAPQVYTIPPPKEQMAKDKVSLTCMITDFFPEDITVEWQWNGQPAENYKNTQPIMDTDGSYFVYSKLNVQKSNWEAGNTFTCSVLHEGLHNHHTEKSLSHSPGIIEGRMDTPYTEAKAQINSSMTRTHRDINYTLSSAQPCPHCPKEWISYSHNCYFIGMERKSWNDSLVSCISKNCSLLYIDSEEEQDFLQSLSLISWTGILRKGRGQPWVWKEDSIFKPKIAEILHDECNCAMMSASGLTADNCTTLHPYLCKCKFPI

binding [4]: binds
binding [5]: binds
binding [6]: binds
binding [7]: binds
binding [8]: binds
binding [9]: binds
binding [10]: binds
binding [11]: binds
binding [12]: binds
binding [13]: binds
binding [14]: binds
binding [15]: binds
B2: mouse CD86-Fc-NKG2A chimeric protein (Fc fusion)
chain: VSVETQAYFNGTAYLPCPFTKAQNISLSELVVFWQDQQKLVLYEHYLGTEKLDSVNAKYLGRTSFDRNNWTLRLHNVQIKDMGSYDCFIQKKPPTGSIILQQTLTELSVIANFSEPEIKLAQNVTGNSGINLTCTSKQGHPKPKKMYFLITNSTNEYGDNMQISQDNVTELFSISNSLSLSFPDGVWHMTVVCVLETESMKISSKPLNFTQEFPSPQTYWKVPRDCGCKPCICTVPEVSSVFIFPPKPKDVLTITLTPKVTCVVVDISKDDPEVQFSWFVDDVEVHTAQTQPREEQFNSTFRSVSELPIMHQDWLNGKEFKCRVNSAAFPAPIEKTISKTKGRPKAPQVYTIPPPKEQMAKDKVSLTCMITDFFPEDITVEWQWNGQPAENYKNTQPIMDTDGSYFVYSKLNVQKSNWEAGNTFTCSVLHEGLHNHHTEKSLSHSPGIIEGRMDTPYTEAKAQINSSMTRTHRDINYTLSSAQPCPHCPKEWISYSHNCYFIGMERKSWNDSLVSCISKNCSLLYIDSEEEQDFLQSLSLISWTGILRKGRGQPWVWKEDSIFKPKIAEILHDECNCAMMSASGLTADNCTTLHPYLCKCKFPI
